Source: patent publication EP2073012A1, “Method for the isolation and identification of ADP-ribosylated molecules” (Fondazione Telethon, priority 2007, dated 2009)
No constants are given. Whether binding was seen depends on the method and setting. In cells and extracts the contact can be indirect. Some results given as binding are weak or reduced against the parent protein; the word gives no strength. Tags and fused reporters may be left off the sequences shown.

Protein sequences, listed by entry. Tags and fused reporters are not part of them. Residues count along the entry.
UniProt P62629, residues 2-462: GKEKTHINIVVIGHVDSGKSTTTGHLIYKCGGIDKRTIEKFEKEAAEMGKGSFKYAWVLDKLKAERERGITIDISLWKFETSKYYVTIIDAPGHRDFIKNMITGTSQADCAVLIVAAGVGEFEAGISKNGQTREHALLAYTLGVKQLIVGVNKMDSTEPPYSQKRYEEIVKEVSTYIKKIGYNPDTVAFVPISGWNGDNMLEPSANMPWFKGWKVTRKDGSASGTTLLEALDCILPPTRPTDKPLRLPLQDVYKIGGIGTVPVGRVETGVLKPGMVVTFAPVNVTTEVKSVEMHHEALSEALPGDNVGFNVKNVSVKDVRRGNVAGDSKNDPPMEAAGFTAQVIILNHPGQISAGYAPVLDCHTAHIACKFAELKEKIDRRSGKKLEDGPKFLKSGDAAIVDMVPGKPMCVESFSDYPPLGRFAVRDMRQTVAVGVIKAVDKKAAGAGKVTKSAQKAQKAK
UniProt G3I8R9, residues 19-654: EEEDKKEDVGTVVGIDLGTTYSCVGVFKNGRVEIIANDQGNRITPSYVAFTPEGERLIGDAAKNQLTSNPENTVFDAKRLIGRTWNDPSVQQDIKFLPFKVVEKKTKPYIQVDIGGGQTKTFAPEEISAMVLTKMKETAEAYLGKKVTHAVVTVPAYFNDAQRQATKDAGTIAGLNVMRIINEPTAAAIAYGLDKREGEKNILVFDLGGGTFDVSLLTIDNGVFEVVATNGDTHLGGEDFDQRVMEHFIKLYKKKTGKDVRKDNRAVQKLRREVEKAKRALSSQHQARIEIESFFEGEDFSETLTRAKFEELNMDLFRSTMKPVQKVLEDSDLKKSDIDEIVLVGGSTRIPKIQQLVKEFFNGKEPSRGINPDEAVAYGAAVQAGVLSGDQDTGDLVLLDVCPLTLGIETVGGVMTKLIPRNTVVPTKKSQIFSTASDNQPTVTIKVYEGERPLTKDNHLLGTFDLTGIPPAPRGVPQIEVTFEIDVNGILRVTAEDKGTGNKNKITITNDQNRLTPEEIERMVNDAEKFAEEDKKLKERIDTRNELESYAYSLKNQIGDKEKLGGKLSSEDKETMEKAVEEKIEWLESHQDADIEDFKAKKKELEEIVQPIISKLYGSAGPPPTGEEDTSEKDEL

T1: SLC25A5, PT-ADP-ribosylated, from HL60 cell membranes (UniProt P05141)
T1 sequence (chain, ADP-ribosylated by pertussis toxin; position not printed): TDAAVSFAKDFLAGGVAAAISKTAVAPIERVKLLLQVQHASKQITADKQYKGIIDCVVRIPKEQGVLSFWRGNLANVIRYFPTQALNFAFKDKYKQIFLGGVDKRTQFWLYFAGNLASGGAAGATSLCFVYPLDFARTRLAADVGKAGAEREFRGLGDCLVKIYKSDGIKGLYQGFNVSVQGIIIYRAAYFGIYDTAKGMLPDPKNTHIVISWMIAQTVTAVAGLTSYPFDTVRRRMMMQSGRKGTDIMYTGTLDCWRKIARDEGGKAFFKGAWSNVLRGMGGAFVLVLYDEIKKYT


Assays:
[1] = target: elongation factor α1/2, endogenously ADP-ribosylated, from CHO cells (Chinese hamster) (UniProt P62629); test: two-step pull-down (G42E mutant, then wild-type His6-mAf1521) from CHO post-nuclear fraction, silver staining, MALDI-TOF-MS
[2] = target: GRP78/BiP, endogenously ADP-ribosylated, from CHO cells (Chinese hamster) (UniProt G3I8R9); test: as above
[3] = target: GRP78/BiP, endogenously ADP-ribosylated, from CHO cells (Chinese hamster) (UniProt G3I8R9); test: pull-down, MALDI-TOF-MS
[4] = target: T1, SLC25A5, PT-ADP-ribosylated, from HL60 cell membranes; test: macro-domain pull-down from HL60 cell membranes, procedure parallel to CHO (data not shown)

Binder	binding [1]	binding [2]	binding [3]	binding [4]
recombinant, N-terminus, His-tagged, full-length Af1521 wild-type (protein, not shown: small tags and cut ends) MEVLFEAKVGDITLKLAQGDITQYPAKAIVNAANKRLEHGGGVAYAIAKACAGDAGLYTEISKKAMREQFGRDYIDHGEVVVTPAMNLEERGIKYVFHTVGPICSGMWSEELKEKLYKAFLGPLEKAEEMGVESIAFPAVSAGIYGCDLEKVVETFLEAVKNFKGSAVKEVALVIYDRKSAEVALKVFERSL	binds	binds	binds	
GST-tagged Af1521 wild-type (protein, not shown: a dimerising Fc or GST) MEVLFEAKVGDITLKLAQGDITQYPAKAIVNAANKRLEHGGGVAYAIAKACAGDAGLYTEISKKAMREQFGRDYIDHGEVVVTPAMNLEERGIKYVFHTVGPICSGMWSEELKEKLYKAFLGPLEKAEEMGVESIAFPAVSAGIYGCDLEKVVETFLEAVKNFKGSAVKEVALVIYDRKSAEVALKVFERSL				binds
